Paper doi:10.1101/074989
No constants are given. Whether binding was seen depends on the method and setting. Some entries that bind do so weakly or less than the wild type.

By UniProt entry, the sequences of proteins in these tests, tags left out.
UniProt O64645: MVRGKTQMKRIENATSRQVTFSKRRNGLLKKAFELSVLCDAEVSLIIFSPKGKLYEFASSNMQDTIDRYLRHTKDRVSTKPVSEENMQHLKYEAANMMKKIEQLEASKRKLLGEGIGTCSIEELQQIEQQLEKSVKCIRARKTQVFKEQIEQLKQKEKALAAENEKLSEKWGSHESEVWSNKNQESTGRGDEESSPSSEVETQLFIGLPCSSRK

Molecular target: SUPPRESSOR OF OVEREXPRESSION OF CONSTANS 1 (Arabidopsis thaliana) (Arabidopsis thaliana) (UniProt O64645)
Assay: two-hybrid

- binding: binds
B1: AGL24 (Arabidopsis thaliana) (protein, UniProt O82794 1-220)
chain: MAREKIRIKKIDNITARQVTFSKRRRGIFKKADELSVLCDADVALIIFSATGKLFEFSSSRMRDILGRYSLHASNINKLMDPPSTHLRLENCNLSRLSKEVEDKTKQLRKLRGEDLDGLNLEELQRLEKLLESGLSRVSEKKGECVMSQIFSLEKRGSELVDENKRLRDKLETLERAKLTTLKEALETESVTTNVSSYDSGTPLEDDSDTSLKLGLPSWE
